Data reported in the supplement of paper PMC8975748.
Structures can show the parent of a compound that is named as a salt. ± gives the standard deviation of the averaged measurements. The list shows a part of the results. Values are raw readings; no control value is given beside them.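 One yeast strain harboring four plasmids, each bearing a fluorescent protein plus an amino-acid or uracil synthesis gene, founds the community. Random loss of plasmids produces mixed prototroph and auxotroph subpopulations. Cells were fixed, then counted with automated confocal fluorescence imaging, with DMSO-treated wells as vehicle reference.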

These molecules were tested on Saccharomyces cerevisiae BY4741 SeMeCo community (assay: imaged cell count per well (cells); higher = more cells). Details: 10 µM; 24 h; SM minimal medium.
Description: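 Same SeMeCo high-content imaging drug screen: Selleck FDA-approved drugs at 10 µM, 24 h in SM medium, 384-well plates, 3 replicates.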
In the case of `NC(=O)N1c2ccccc2CC(=O)c2ccccc21` [Oxcarbazepine], the “imaged cell count per well” value is reported as 23700 ± 9400. With `Nc1nnc(-c2cccc(Cl)c2Cl)c(N)n1` [Lamotrigine] the “imaged cell count per well” value was 25700 ± 3500. `O=C(O[C@H]1CN2CCC1CC2)N1CCc2ccccc2[C@@H]1c1ccccc1` [Solifenacin succinate] was tested, and the “imaged cell count per well” value was 21600 ± 7400. For `CCN(CC)CCNC(=O)c1cc(Cl)c(N)cc1OC` [Metoclopramide], the “imaged cell count per well” value was 27400 ± 6400. For `CCN(CC)CCOC(=O)c1ccc(N)cc1Cl` [Chloroprocaine HCl], the “imaged cell count per well” value was 22300 ± 3800. In the case of `O=C(c1ccc(OCCN2CCCCC2)cc1)c1c(-c2ccc(O)cc2)sc2cc(O)ccc12` [Raloxifene], the “imaged cell count per well” value is reported as 25300 ± 8100. `O=C1CC2(CCCC2)CC(=O)N1CCCCN1CCN(c2ncccn2)CC1` [Buspirone HCl] was tested, and the “imaged cell count per well” value was 22500 ± 6800. `CC(c1cc2ccccc2s1)N(O)C(N)=O` (stereo unspecified) [Zileuton] was tested, and the “imaged cell count per well” value was 18600 ± 6800. In the case of `OCCOCCN1CCN(C2=Nc3ccccc3Sc3ccccc32)CC1` [Quetiapine Fumarate], the “imaged cell count per well” value is reported as 22800 ± 2600. `CC(C)(C)[C@H]1CC[C@H](CC2=C(O)C(=O)c3ccccc3C2=O)CC1` [Buparvaquone] was tested, and the “imaged cell count per well” value was 32900 ± 2100. For `CC(C)[C@H](N)C(=O)OCC(CO)OCn1cnc2c(=O)[nH]c(N)nc21` (stereo partly specified) [Valganciclovir HCl], the “imaged cell count per well” value was 19900 ± 4300. In the case of `CC(=O)O[C@H]1C[C@@]2(C)[C@@H](C[C@@H](O)[C@H]3[C@@]4(C)CC[C@@H](O)[C@@H](C)[C@@H]4CC[C@@]32C)/C1=C(\CCC=C(C)C)C(=O)O` [Fusidate Sodium], the “imaged cell count per well” value is reported as 20000 ± 4200. In the case of `CCCN[C@H]1CCc2nc(N)sc2C1` [Pramipexole 2HCl Monohydrate], the “imaged cell count per well” value is reported as 21500 ± 4800. `OC(Cn1cncn1)(Cn1cncn1)c1ccc(F)cc1F` [Fluconazole] was tested, and the “imaged cell count per well” value was 25700 ± 3000. For `CN(C)CC(c1ccc(O)cc1)C1(O)CCCCC1` (stereo unspecified) [Desvenlafaxine], the “imaged cell count per well” value was 29200 ± 7800. `CCCOc1ccc2[nH]c(NC(=O)OC)nc2c1` [Oxibendazole] was tested, and the “imaged cell count per well” value was 25900 ± 2600. For `CCC1(c2ccccc2)C(=O)NCNC1=O` [Primidone], the “imaged cell count per well” value was 16900 ± 1900. With `COc1cc2c(cc1OC)C(=O)C(CC1CCN(Cc3ccccc3)CC1)C2` (stereo unspecified) [Donepezil HCl] the “imaged cell count per well” value was 26900 ± 8600. In the case of `CCN(CC)CC#CCOC(=O)C(O)(c1ccccc1)C1CCCCC1` (stereo unspecified) [Oxybutynin], the “imaged cell count per well” value is reported as 20900 ± 5600. For `CN[C@@H]1[C@@H](O)[C@@H](O[C@@H]2[C@@H](O)[C@H](O[C@H]3OC(CN)=CC[C@H]3N)[C@@H](N)C[C@H]2N)OC[C@]1(C)O` [Sisomicin sulfate], the “imaged cell count per well” value was 19100 ± 7400. In the case of `CO[C@H]1C[C@@H]2CC[C@@H](C)[C@@](O)(O2)C(=O)C(=O)N2CCCC[C@H]2C(=O)O[C@H]([C@H](C)C[C@@H]2CC[C@H](n3cnnn3)[C@H](OC)C2)CC(=O)[C@H](C)/C=C(\C)[C@@H](O)[C@@H](OC)C(=O)[C@H](C)C[C@H](C)/C=C/C=C/C=C/1C` [Zotarolimus(ABT-578)], the “imaged cell count per well” value is reported as 7120 ± 2500. For `CC1CCc2c(N3CCC(O)CC3)c(F)cc3c(=O)c(C(=O)O)cn1c23` (stereo unspecified) [Nadifloxacin], the “imaged cell count per well” value was 21700 ± 6600. With `C=CC1=C(C(=O)O)N2C(=O)[C@@H](NC(=O)/C(=N\O)c3csc(N)n3)[C@H]2SC1` [Cefdinir] the “imaged cell count per well” value was 19700 ± 6300. In the case of `COCCCOc1ccnc(C[S+]([O-])c2nc3ccccc3[nH]2)c1C` (stereo unspecified) [Rebeprazole sodium], the “imaged cell count per well” value is reported as 22300 ± 2000. With `COc1ccc2c(c1)c(CC(=O)O)c(C)n2C(=O)c1ccc(Cl)cc1` [Indomethacin] the “imaged cell count per well” value was 26200 ± 1600. `CCCCC(=O)O[C@H]1CC[C@H]2[C@@H]3CCc4cc(O)ccc4[C@H]3CC[C@]12C` [Estradiol valerate] was tested, and the “imaged cell count per well” value was 27300 ± 5600.
